The test system of this data set is BAF complex subunits and histone proteins. Put plainly: Mass spectrometry proteomics of purified HA-SS18 WT and HA-SS18-SSX1 complexes (Tables 5A-5E). Details: species or system human.
The mark [1] stands for this setting: HA-SS18SSX1_CHR_peptides: protein identified in the HA-SS18-SSX1 purification from solubilized chromatin (CHR), HEK-293T.
[2] abbreviates: HA-SS18SSX1_NE_peptides: protein co-purified with HA-SS18-SSX1 BAF complexes from soluble nuclear extract (NE), HEK-293T cells.
Where [3] appears, read: HA-SS18WT_CHR_peptides: HA-SS18 WT purification from nuclease-treated solubilized chromatin (CHR), HEK-293T, label = protein identified.
Setting [4] is: HA-SS18WT_NE_peptides: proteins co-purified with HA-SS18 WT from nuclear extract (NE), HEK-293T.
[5] abbreviates: HA-SS18SSX1 purification, NE (soluble nuclear extract) fraction, HEK-293T, peptides per identified protein.
Where [6] appears, read: HA-SS18WT_NE_peptides: HA-SS18 WT complexes purified from nuclear extract (NE), HEK-293T, label = protein identified (Gene Symbol).
[7] abbreviates: HA-SS18SSX1_NE_peptides (Table 5B), HA-SS18-SSX1 BAF complex purification from soluble nuclear extract, HEK-293T.
[8] abbreviates: HA-SS18WT_CHR_peptides: protein identified in HA-SS18 WT BAF complex purification from nuclease-treated solubilized chromatin (CHR), HEK-293T.

B1: HNRNPR (protein, UniProt O43390 2-633, looked up)
Heterogeneous nuclear …: ANQVNGNAVQLKEEEEPMDTSSVTHTEHYKTLIEAGLPQKVAERLDEIFQTGLVAYVDLDERAIDALREFNEEGALSVLQQFKESDLSHVQNKSAFLCGVMKTYRQREKQGSKVQESTKGPDEAKIKALLERTGYTLDVTTGQRKYGGPPPDSVYSGVQPGIGTEVFVGKIPRDLYEDELVPLFEKAGPIWDLRLMMDPLSGQNRGYAFITFCGKEAAQEAVKLCDSYEIRPGKHLGVCISVANNRLFVGSIPKNKTKENILEEFSKVTEGLVDVILYHQPDDKKKNRGFCFLEYEDHKSAAQARRRLMSGKVKVWGNVVTVEWADPVEEPDPEVMAKVKVLFVRNLATTVTEEILEKSFSEFGKLERVKKLKDYAFVHFEDRGAAVKAMDEMNGKEIEGEEIEIVLAKPPDKKRKERQAARQASRSTAYEDYYYHPPPRMPPPIRGRGRGGGRGGYGYPPDYYGYEDYYDDYYGYDYHDYRGGYEDPYYGYDDGYAVRGRGGGRGGRGAPPPPRGRGAPPPRGRAGYSQRGAPLGPPRGSRGGRGGPAQQQRGRGSRGSRGNRGGNVGGKRKADGYNQPDSKRRQTNNQQNWGSQPIAQQPLQQGGDYSGNYGYNNDNQEFYQDTYGQQWK
On to B1, for which, under setting [1], the “Total (total peptides)” value is recorded as 9 and the “Unique (unique peptides)” value was 9. Besides, under setting [2], the “Total (peptides)” value was determined as 1 and the “Unique (peptides)” value came to 1. Under setting [3], the “Total (peptides)” value is 5 and the “Unique (peptides)” value is listed as 5. Under setting [4], the “Total (peptides)” value was 1 and the “Unique (peptides)” value amounted to 1.

B2: PAXBP1 (protein, UniProt Q9Y5B6 1-917, looked up)
PAX3- and PAX7-binding …: MFRKARRVNVRKRNDSEEEERERDEEQEPPPLLPPPGTGEEAGPGGGDRAPGGESLLGPGPSPPSALTPGLGAEAGGGFPGGAEPGNGLKPRKRPRENKEVPRASLLSFQDEEEENEEVFKVKKSSYSKKIVKLLKKEYKEDLEKSKIKTELNSSAESEQPLDKTGHVKDTNQEDGVIISEHGEDEMDMESEKEEEKPKTGGAFSNALSSLNVLRPGEIPDAAFIHAARKKRQMARELGDFTPHDNEPGKGRLVREDENDASDDEDDDEKRRIVFSVKEKSQRQKIAEEIGIEGSDDDALVTGEQDEELSRWEQEQIRKGINIPQVQASQPAEVNMYYQNTYQTMPYGSSYGIPYSYTAYGSSDAKSQKTDNTVPFKTPSNEMTPVTIDLVKKQLKDRLDSMKELHKTNRQQHEKHLQSRVDSTRAIERLEGSSGGIGERYKFLQEMRGYVQDLLECFSEKVPLINELESAIHQLYKQRASRLVQRRQDDIKDESSEFSSHSNKALMAPNLDSFGRDRALYQEHAKRRIAEREARRTRRRQAREQTGKMADHLEGLSSDDEETSTDITNFNLEKDRISKESGKVFEDVLESFYSIDCIKSQFEAWRSKYYTSYKDAYIGLCLPKLFNPLIRLQLLTWTPLEAKCRDFENMLWFESLLFYGCEEREQEKDDVDVALLPTIVEKVILPKLTVIAENMWDPFSTTQTSRMVGITLKLINGYPSVVNAENKNTQVYLKALLLRMRRTLDDDVFMPLYPKNVLENKNSGPYLFFQRQFWSSVKLLGNFLQWYGIFSNKTLQELSIDGLLNRYILMAFQNSEYGDDSIKKAQNVINCFPKQWFMNLKGERTISQLENFCRYLVHLADTIYRNSIGCSDVEKRNARENIKQIVKLLASVRALDHAMSVASDHNVKEFKSLIEGK
In the case of B2, under setting [1], the “Total (total peptides)” value is on record as 9 and the “Unique (unique peptides)” value is 8. For the same molecule, under setting [5], the “Total (total peptides)” value turned out to be 12 and the “Unique (unique peptides)” value was 12. Under setting [3], the “Total (peptides)” value came out at 6 and the “Unique (peptides)” value is 6. Besides, under setting [6], the “Total (peptides)” value was 10 and the “Unique (peptides)” value is listed as 9.

B3: HNRNPA2B1 (protein, UniProt P22626 1-353, looked up)
Heterogeneous nuclear …: MEKTLETVPLERKKREKEQFRKLFIGGLSFETTEESLRNYYEQWGKLTDCVVMRDPASKRSRGFGFVTFSSMAEVDAAMAARPHSIDGRVVEPKRAVAREESGKPGAHVTVKKLFVGGIKEDTEEHHLRDYFEEYGKIDTIEIITDRQSGKKRGFGFVTFDDHDPVDKIVLQKYHTINGHNAEVRKALSRQEMQEVQSSRSGRGGNFGFGDSRGGGGNFGPGPGSNFRGGSDGYGSGRGFGDGYNGYGGGPGGGNFGGSPGYGGGRGGYGGGGPGYGNQGGGYGGGYDNYGGGNYGSGNYNDFGNYNQQPSNYGPMKSGNFGGSRNMGGPYGGGNYGPGGSGGSGGYGGRSRY
With B3, under setting [1], the “Total (total peptides)” value is listed as 9 and the “Unique (unique peptides)” value was 8.

B4: UTP18 (protein, UniProt Q9Y5J1 1-556, looked up)
U3 small nucleolar …: MPPERRRRMKLDRRTGAKPKRKPGMRPDWKAGAGPGGPPQKPAPSSQRKPPARPSAAAAAIAVAAAEEERRLRQRNRLRLEEDKPAVERCLEELVFGDVENDEDALLRRLRGPRVQEHEDSGDSEVENEAKGNFPPQKKPVWVDEEDEDEEMVDMMNNRFRKDMMKNASESKLSKDNLKKRLKEEFQHAMGGVPAWAETTKRKTSSDDESEEDEDDLLQRTGNFISTSTSLPRGILKMKNCQHANAERPTVARISSVQFHPGAQIVMVAGLDNAVSLFQVDGKTNPKIQSIYLERFPIFKACFSANGEEVLATSTHSKVLYVYDMLAGKLIPVHQVRGLKEKIVRSFEVSPDGSFLLINGIAGYLHLLAMKTKELIGSMKINGRVAASTFSSDSKKVYASSGDGEVYVWDVNSRKCLNRFVDEGSLYGLSIATSRNGQYVACGSNCGVVNIYNQDSCLQETNPKPIKAIMNLVTGVTSLTFNPTTEILAIASEKMKEAVRLVHLPSCTVFSNFPVIKNKNISHVHTMDFSPRSGYFALGNEKGKALMYRLHHYSDF
For B4, under setting [1], the “Total (total peptides)” value amounted to 9 and the “Unique (unique peptides)” value was determined as 8. Also, under setting [7], the “Total (peptides)” value was determined as 1 and the “Unique (peptides)” value was 1. Also, under setting [3], the “Total (peptides)” value is 5 and the “Unique (peptides)” value came out at 4. Besides, under setting [4], the “Total (peptides)” value is on record as 2 and the “Unique (peptides)” value amounted to 2.

B5: TEX10 (protein, UniProt Q9NXF1 1-929, looked up)
Testis-expressed protein 10: MTKKRKRQHDFQKVKLKVGKKKPKLQNATPTNFKTKTIHLPEQLKEDGTLPTNNRKLNIKDLLSQMHHYNAGVKQSALLGLKDLLSQYPFIIDAHLSNILSEVTAVFTDKDANVRLAAVQLLQFLAPKIRAEQISPFFPLVSAHLSSAMTHITEGIQEDSLKVLDILLEQYPALITGRSSILLKNFVELISHQQLSKGLINRDRSQSWILSVNPNRRLTSQQWRLKVLVRLSKFLQALADGSSRLRESEGLQEQKENPHATSNSIFINWKEHANDQQHIQVYENGGSQPNVSSQFRLRYLVGGLSGVDEGLSSTENLKGFIEIIIPLLIECWVEAVPPQLATPVGNGIEREPLQVMQQVLNIISLLWKLSKQQDETHKLESWLRKNYLIDFKHHFMSRFPYVLKEITKHKRKEPNKSIKHCTVLSNNIDHLLLNLTLSDIMVSLANASTLQKDCSWIEMIRKFVTETLEDGSRLNSKQLNRLLGVSWRLMQIQPNREDTETLIKAVYTLYQQRGLILPVRTLLLKFFSKIYQTEELRSCRFRYRSKVLSRWLAGLPLQLAHLGSRNPELSTQLIDIIHTAAARANKELLKSLQATALRIYDPQEGAVVVLPADSQQRLVQLVYFLPSLPADLLSRLSRCCIMGRLSSSLAAMLIGILHMRSSFSGWKYSAKDWLMSDVDYFSFLFSTLTGFSKEELTWLQSLRGVPHVIQTQLSPVLLYLTDLDQFLHHWDVTEAVFHSLLVIPARSQNFDILQSAISKHLVGLTVIPDSTAGCVFGVICKLLDHTCVVSETLLPFLASCCYSLLYFLLTIEKGEAEHLRKRDKLWGVCVSILALLPRVLRLMLQSLRVNRVGPEELPVVGQLLRLLLQHAPLRTHMLTNAILVQQIIKNITTLKSGSVQEQWLTDLHYCFNVYITGHPQGPSALATVY
B5: the “Total (total peptides)” value under setting [1] came out at 8 and the “Total (total peptides)” value under setting [5] worked out at 4. Moreover, the “Unique (unique peptides)” value worked out at 8 under setting [1] and 4 under setting [5]. The “Total (peptides)” value under setting [3] is given as 5 and the “Total (peptides)” value under setting [6] is on record as 3. In addition, the “Unique (peptides)” value stood at 5 under setting [3] and 3 under setting [6].

B6: NOL10 (protein, UniProt Q9BSC4 1-688, looked up)
Nucleolar protein 10: MQVSSLNEVKIYSLSCGKSLPEWLSDRKKRALQKKDVDVRRRIELIQDFEMPTVCTTIKVSKDGQYILATGTYKPRVRCYDTYQLSLKFERCLDSEVVTFEILSDDYSKIVFLHNDRYIEFHSQSGFYYKTRIPKFGRDFSYHYPSCDLYFVGASSEVYRLNLEQGRYLNPLQTDAAENNVCDINSVHGLFATGTIEGRVECWDPRTRNRVGLLDCALNSVTADSEINSLPTISALKFNGALTMAVGTTTGQVLLYDLRSDKPLLVKDHQYGLPIKSVHFQDSLDLILSADSRIVKMWNKNSGKIFTSLEPEHDLNDVCLYPNSGMLLTANETPKMGIYYIPVLGPAPRWCSFLDNLTEELEENPESTVYDDYKFVTKKDLENLGLTHLIGSPFLRAYMHGFFMDIRLYHKVKLMVNPFAYEEYRKDKIRQKIEETRAQRVQLKKLPKVNKELALKLIEEEEEKQKSTWKKKVKSLPNILTDDRFKVMFENPDFQVDEESEEFRLLNPLVSKISEKRKKKLRLLEQQELREKEEEEEPEGKPSDAESSESSDDEKAWVEEVRKQRRLLQQEEKVKRQERLKEDQQTVLKPQFYEIKAGEEFRSFKDSATKQKLMNKTLEDRLKIEAKNGTLSVSDTTVGSKQLTFTLKRSEQQKKQQEAEKLHRQERKRLRRSAGHLKSRHKRGRSFH
Regarding B6, under setting [1], the “Total (total peptides)” value is on record as 9 and the “Unique (unique peptides)” value came to 9. Further, under setting [3], the “Total (peptides)” value was determined as 5 and the “Unique (peptides)” value came to 5.

B7: SLC25A6 (protein, UniProt P12236 1-298, looked up)
ADP/ATP translocase 3: MTEQAISFAKDFLAGGIAAAISKTAVAPIERVKLLLQVQHASKQIAADKQYKGIVDCIVRIPKEQGVLSFWRGNLANVIRYFPTQALNFAFKDKYKQIFLGGVDKHTQFWRYFAGNLASGGAAGATSLCFVYPLDFARTRLAADVGKSGTEREFRGLGDCLVKITKSDGIRGLYQGFSVSVQGIIIYRAAYFGVYDTAKGMLPDPKNTHIVVSWMIAQTVTAVAGVVSYPFDTVRRRMMMQSGRKGADIMYTGTVDCWRKIFRDEGGKAFFKGAWSNVLRGMGGAFVLVLYDELKKVI
For the molecule B7, the “Total (total peptides)” value came to 9 under setting [1], 31 under setting [5] and 1 under setting [8]. In addition, the “Unique (unique peptides)” value runs as follows: under setting [1], 8; under setting [5], 14; under setting [8], 1. Further, the “Total (peptides)” value under setting [6] was 41. Also, the “Unique (peptides)” value under setting [6] amounted to 13.

For the origin of these results see patent publication US20250283871A1, “COMPOSITIONS AND METHODS FOR MODULATING THE INTERACTION BETWEEN SS18-SSX FUSION ONCOPROTEIN AND NUCLEOSOMES” (Dana-Farber Cancer Institute, Inc., priority 2020, published 2025).
